This note sets out measurements from publication PMC12741742.

No constants are given. Whether binding was seen depends on the method and setting.

This experiment concerns the target brazzein (recombinant, produced in Trichoderma reesei, with N-terminal pyroglutamic acid) (Pentadiplandra brazzeana). Description: dynamic light scattering; brazzein in water, 2 mg/mL, 20 °C at the start of the thermal ramp, 173° backscattering; sample stored 24 months at 4-8 °C before analysis; both purified.

B1: brazzein (recombinant, produced in Trichoderma reesei, with N-terminal pyroglutamic acid) (protein)
chain: QDKCKKVYENYPVSKCQLANQCNYDCKLDKHARSGECFYDEKRNLQCICDYCEY
modifications: N-terminal pyroglutamic acid (pQ1); four disulfide bonds
B1: the binding result is “no binding (tested: 2 mg/mL)”.
